Values from PubChem BioAssay AID602196 (INSERM, 2012).
This is an unselected part of about 23,000 deposited reagents. Of all reagents, 455 (2%) were called active. 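Active includes both protection and sensitisation; some change values fall well beyond the stated -50 to +50 range.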 Entries without a mark were called inactive. Further read-outs or replicates are left out here. No sequences are given here. Not stated in the record: the amount of reagent.

Purpose: 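Knock-downs that protect lung cancer cells from cisplatin or sensitise them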
Cells: human A549 lung cancer cells
Reagent: siRNA pair against human genes
Time to read-out: 48 h transfection before cisplatin; time from cisplatin to read-out not stated
Challenge: cisplatin at a dose killing half of control-siRNA cells; exact dose and duration not given
Read-out: 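Cisplatin cell death as a shift from the 50% death seen with control siRNA; siRNAs toxic or growth-blocking alone scored 0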
Direction: two-siRNA summed score (-2 to +2): higher = both siRNAs protect from cisplatin killing; -2 means both sensitise
Hit rule: 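siRNAs harmful alone (LDH or WST-1) get 0; others get +1 for less and -1 for more cisplatin killing; genes are active when the two siRNAs give the same sign, summing to ±2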
Calls: active = both siRNAs shift cisplatin killing the same way; inactive = no consistent shift, or siRNA harmful alone

Knock-down of LOC393078 (retired record) (GeneID 393078) came out at: two-siRNA summed score (-2 to +2) = 0.
Silencing of CASP4 (GeneID 837) gave: two-siRNA summed score (-2 to +2) = -1.
LOC391609 gave two-siRNA summed score (-2 to +2) = 1.
EMC2 (GeneID 9694) gave two-siRNA summed score (-2 to +2) = 0.
For OXSR1 (GeneID 9943), the entry reads two-siRNA summed score (-2 to +2) = 0.
For RPL34 (GeneID 6164), the entry reads two-siRNA summed score (-2 to +2) = 1.
With knock-down of L3MBTL1 (GeneID 26013), the record shows two-siRNA summed score (-2 to +2) = 0.
PPAN (GeneID 56342) scored two-siRNA summed score (-2 to +2) = 1.
Silencing of PPIL3 (GeneID 53938) gave: two-siRNA summed score (-2 to +2) = 1.
For BAK1 (GeneID 578), the entry reads two-siRNA summed score (-2 to +2) = 1.
With knock-down of GPS1 (GeneID 2873), the record shows two-siRNA summed score (-2 to +2) = 0.
For FAM106A (GeneID 80039) the deposit lists two-siRNA summed score (-2 to +2) = 0.
With knock-down of HILPDA (GeneID 29923) the results were two-siRNA summed score (-2 to +2) = 0.
Knock-down of IKZF4 (GeneID 64375) resulted in: two-siRNA summed score (-2 to +2) = 0.
Depletion of PPFIA1 (GeneID 8500) came out at: two-siRNA summed score (-2 to +2) = 0.
LENEP (GeneID 55891) gave two-siRNA summed score (-2 to +2) = 0.
For SIGLEC1 (GeneID 6614) the deposit lists two-siRNA summed score (-2 to +2) = 0.
With knock-down of LMX1A (GeneID 4009) the results were two-siRNA summed score (-2 to +2) = 0.
With knock-down of H2AC4 (GeneID 8335), the screen gave two-siRNA summed score (-2 to +2) = 0.
TMEM63B (GeneID 55362) scored two-siRNA summed score (-2 to +2) = 0.
LOC390859 showed two-siRNA summed score (-2 to +2) = 0.
Against MAP3K14 (GeneID 9020) the deposit lists two-siRNA summed score (-2 to +2) = 1.
For FGFBP2 (GeneID 83888), the entry reads two-siRNA summed score (-2 to +2) = 0.
Against ISOC2 (GeneID 79763), the values are two-siRNA summed score (-2 to +2) = 0.
After knock-down of ZNF559 (GeneID 84527), the screen gave two-siRNA summed score (-2 to +2) = 0.
Depletion of CLEC18A (GeneID 348174) gave: two-siRNA summed score (-2 to +2) = 1.
For SCN4A (GeneID 6329) the deposit lists two-siRNA summed score (-2 to +2) = 0.
After knock-down of HYOU1 (GeneID 10525), the record shows two-siRNA summed score (-2 to +2) = 0.
For PDZD9 (GeneID 255762), the entry reads two-siRNA summed score (-2 to +2) = 0.
Knock-down of SLC12A9 (GeneID 56996) came out at: two-siRNA summed score (-2 to +2) = 0.
After knock-down of XPR1 (GeneID 9213) the results were two-siRNA summed score (-2 to +2) = 0.

2 neighbouring records from above, for reference:
LOC390859 | two-siRNA summed score (-2 to +2): 0
MAP3K14 (GeneID 9020) | two-siRNA summed score (-2 to +2): 1
